Results reported in US20190367612A1.
Substitutions are numbered along the chain they refer to. No constants are given. Whether binding was seen depends on the method and setting. Binding calls can cover weak binding; strength is not graded here. Values belong to the binder of their own block, whether it stands above or below them.

How the values were obtained:
[1] = biological target: cynomolgus monkey GPRC5D (cynomolgus monkey); test: flow cytometry, KMS-11_cGPRC5D cells
[2] = biological target: cynomolgus monkey GPRC5D (cynomolgus monkey); test: flow cytometry on KMS-11_cGPRC5D cells (cynomolgus monkey GPRC5D), PE anti-human IgG Fc, rMFI over human IgG isotype control
[3] = biological target: cynomolgus monkey GPRC5D (cynomolgus monkey); test: flow cytometry on KMS-11_cGPRC5D cells (cynomolgus monkey GPRC5D), PE anti-human IgG Fc detection, rMFI = MFI minus isotype control

- binding [1]: binds
- binding [2]: binds
B1: human chimeric 2A4 (antibody, human IgG1, V domains shown)
VH: QVQLQQSGAELAKPGTSVKLSCKASGYTFTSYYIYWVKQRPGQGLEWIGYVYPGYGGTYYSDKFKGKATFTADTSSSTAYMLLGSLTPEDSAYYFCARRKGIIRGPGYFDYWGQGVMVTVSS
VL: DIQMTQSPASLSASLGETVSIECLASEGISNSLAWYQQKPGKSPQLLIYGASSLQDGVPSRFSGSGSGTQYSLKISGMQPEDEGLYYCQQGYKYPPTFGGGTKLELKR

- binding [1]: binds
- binding [3]: binds
B2: humanized anti-GPRC5D antibody h7B4_H2/L2 (antibody, human IgG1, kappa, V domains shown)
VH: EIQLQESGPGLVKPSQTLSLTCTVSGYTITSGYDWSWIRQPPGKGLEWIGYMSYRGSTNYNPSLKSRVTISRDTSKNQFSLKLSSVTAADTAVYYCALTRTYWYNYYYVLDAWGQGTLVTVSS
VL: DIQMTQSPSSLSLSPGERATLSCKASQNINKYLDWYQQKPGQPPRLLIYNTNNLHTGIPDRFSGSGSGTDYTLTISRLEPEDFAVYYCLQRNSWYTFGQGTKVEIKR

- binding [1]: binds
- binding [3]: binds
B3: humanized anti-GPRC5D antibody h7B4_H5/L1 (antibody, human IgG1, kappa, V domains shown)
VH: B2 VH with Q40K, K44N, G45K, L46M, G50A
VL: B2 VL with D1E, Q3V, M4L, S9G, S10T

- binding [1]: binds
- binding [2]: binds
B4: human chimeric 7B4 (antibody, human IgG1, V domains shown)
VH: EIHLQESGPGLVKPSQSLSLTCSVTGYTITSGYDWSWIRKFPGNKMEWMAYMSYRGSTNYNPSLKSRISITRDTSKNQFFLQLNSVTTEDTATYYCALTRTYWYNYYYVLDAWGQGASVTVSS
VL: DIQMTQSPSFLSASVGERVTLSCKASQNINKYLDWYQQKLGEPPKLLIYNTNNLHTGIPSRFSGSGSGTDYTLTISGLQPEDVATYFCLQRNSWYTFGAGTKLELKR
